The other results are listed elsewhere or left out.
Compound: Cc1cc(ccc1-c1ccccc1)C(=O)N1CCCN(CC1)C(=O)CCl [compound 10]
Assay: probe-labelled cysteine peptide fold change vs DMSO (competition) (log2 fold change); higher = less target engagement (more negative = stronger competition)
Details: THP-1, incubation time: 4 h
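Also: competitive profiling in live THP-1 cells: cysteine peptides tagged with an iodoacetamide desthiobiotin (IA-DTB) probe, intensity after compound treatment relative to DMSO-treated cells.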

Protein sequences, listed by entry. Tags and fused reporters are not part of them. Lines headed by an entry give the natural chain unless they say otherwise; changes in a name come on top.
UniProt P08651, whole entry, looked up: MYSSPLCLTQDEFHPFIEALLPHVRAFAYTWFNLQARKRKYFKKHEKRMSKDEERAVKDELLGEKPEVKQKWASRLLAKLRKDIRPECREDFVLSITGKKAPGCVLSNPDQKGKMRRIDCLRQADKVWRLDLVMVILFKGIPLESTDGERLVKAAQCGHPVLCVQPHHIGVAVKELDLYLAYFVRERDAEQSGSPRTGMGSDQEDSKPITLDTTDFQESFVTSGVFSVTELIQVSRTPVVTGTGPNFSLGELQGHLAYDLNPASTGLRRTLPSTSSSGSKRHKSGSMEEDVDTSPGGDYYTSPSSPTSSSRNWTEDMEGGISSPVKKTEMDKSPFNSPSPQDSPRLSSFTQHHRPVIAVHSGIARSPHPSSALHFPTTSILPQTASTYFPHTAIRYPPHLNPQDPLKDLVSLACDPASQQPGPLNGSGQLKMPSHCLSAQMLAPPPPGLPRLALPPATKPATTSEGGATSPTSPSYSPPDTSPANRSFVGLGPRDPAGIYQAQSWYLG
UniProt P51970, whole entry, looked up: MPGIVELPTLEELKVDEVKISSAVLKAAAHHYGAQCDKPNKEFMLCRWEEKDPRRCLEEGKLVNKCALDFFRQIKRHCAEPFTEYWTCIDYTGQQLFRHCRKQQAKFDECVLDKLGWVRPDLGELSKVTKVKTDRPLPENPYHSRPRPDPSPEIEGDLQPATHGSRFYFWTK
UniProt Q9HCD5: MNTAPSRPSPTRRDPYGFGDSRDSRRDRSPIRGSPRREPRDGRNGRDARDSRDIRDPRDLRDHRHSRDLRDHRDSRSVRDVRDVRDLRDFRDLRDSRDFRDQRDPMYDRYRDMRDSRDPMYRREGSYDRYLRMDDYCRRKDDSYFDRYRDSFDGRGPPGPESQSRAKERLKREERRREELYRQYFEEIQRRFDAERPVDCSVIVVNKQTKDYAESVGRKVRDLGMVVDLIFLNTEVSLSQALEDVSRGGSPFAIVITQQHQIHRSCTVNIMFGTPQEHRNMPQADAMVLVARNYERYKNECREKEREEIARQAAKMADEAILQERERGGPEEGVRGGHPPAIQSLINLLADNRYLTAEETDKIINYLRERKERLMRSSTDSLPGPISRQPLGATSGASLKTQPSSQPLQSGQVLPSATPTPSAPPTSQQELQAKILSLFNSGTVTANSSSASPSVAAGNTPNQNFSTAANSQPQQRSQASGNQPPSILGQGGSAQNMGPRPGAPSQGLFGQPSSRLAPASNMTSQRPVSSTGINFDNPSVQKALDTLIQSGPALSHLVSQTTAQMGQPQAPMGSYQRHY
UniProt Q9BYG3: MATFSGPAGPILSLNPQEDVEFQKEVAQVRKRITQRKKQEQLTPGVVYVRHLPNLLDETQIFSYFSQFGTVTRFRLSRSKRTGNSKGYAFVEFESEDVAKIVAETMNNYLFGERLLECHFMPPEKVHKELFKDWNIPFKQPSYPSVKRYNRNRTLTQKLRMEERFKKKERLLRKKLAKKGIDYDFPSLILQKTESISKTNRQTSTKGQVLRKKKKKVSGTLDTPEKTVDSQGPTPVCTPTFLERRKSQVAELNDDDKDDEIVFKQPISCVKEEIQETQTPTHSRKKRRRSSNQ
UniProt O75323: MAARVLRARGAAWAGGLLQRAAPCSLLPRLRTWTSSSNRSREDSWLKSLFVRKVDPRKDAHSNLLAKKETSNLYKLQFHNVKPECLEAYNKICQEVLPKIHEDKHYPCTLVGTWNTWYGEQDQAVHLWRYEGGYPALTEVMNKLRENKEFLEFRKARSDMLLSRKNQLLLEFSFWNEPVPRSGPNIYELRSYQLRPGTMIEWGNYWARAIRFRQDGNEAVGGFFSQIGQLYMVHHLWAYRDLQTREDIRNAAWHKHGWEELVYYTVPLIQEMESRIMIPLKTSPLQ
UniProt P35240: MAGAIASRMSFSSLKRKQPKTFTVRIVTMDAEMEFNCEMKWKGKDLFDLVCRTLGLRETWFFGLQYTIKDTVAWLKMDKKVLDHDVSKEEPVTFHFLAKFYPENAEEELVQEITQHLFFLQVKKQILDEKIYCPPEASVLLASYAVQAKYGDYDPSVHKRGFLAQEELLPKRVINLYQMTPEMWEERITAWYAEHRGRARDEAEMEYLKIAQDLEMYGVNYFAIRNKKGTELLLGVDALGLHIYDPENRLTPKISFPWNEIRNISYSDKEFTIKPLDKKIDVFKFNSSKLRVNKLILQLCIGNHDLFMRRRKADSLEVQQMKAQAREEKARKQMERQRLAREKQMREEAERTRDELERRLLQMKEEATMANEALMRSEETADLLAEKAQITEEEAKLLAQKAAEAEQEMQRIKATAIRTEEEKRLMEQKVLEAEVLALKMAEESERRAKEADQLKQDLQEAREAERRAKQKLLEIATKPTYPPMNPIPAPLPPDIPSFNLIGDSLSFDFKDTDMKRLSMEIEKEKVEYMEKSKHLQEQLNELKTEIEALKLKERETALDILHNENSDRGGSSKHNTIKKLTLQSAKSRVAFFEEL
UniProt Q9UGV2: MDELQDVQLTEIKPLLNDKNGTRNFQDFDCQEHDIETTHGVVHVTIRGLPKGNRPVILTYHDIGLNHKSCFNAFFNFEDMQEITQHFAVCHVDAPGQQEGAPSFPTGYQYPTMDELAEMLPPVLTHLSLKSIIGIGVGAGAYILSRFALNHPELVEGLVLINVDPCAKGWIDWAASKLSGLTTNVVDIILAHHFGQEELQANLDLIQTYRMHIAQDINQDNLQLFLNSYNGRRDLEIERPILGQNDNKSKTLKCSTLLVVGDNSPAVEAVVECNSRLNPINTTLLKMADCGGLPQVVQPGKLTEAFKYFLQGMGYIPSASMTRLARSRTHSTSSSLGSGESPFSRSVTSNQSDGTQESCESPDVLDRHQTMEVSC
UniProt P49821, whole entry, looked up: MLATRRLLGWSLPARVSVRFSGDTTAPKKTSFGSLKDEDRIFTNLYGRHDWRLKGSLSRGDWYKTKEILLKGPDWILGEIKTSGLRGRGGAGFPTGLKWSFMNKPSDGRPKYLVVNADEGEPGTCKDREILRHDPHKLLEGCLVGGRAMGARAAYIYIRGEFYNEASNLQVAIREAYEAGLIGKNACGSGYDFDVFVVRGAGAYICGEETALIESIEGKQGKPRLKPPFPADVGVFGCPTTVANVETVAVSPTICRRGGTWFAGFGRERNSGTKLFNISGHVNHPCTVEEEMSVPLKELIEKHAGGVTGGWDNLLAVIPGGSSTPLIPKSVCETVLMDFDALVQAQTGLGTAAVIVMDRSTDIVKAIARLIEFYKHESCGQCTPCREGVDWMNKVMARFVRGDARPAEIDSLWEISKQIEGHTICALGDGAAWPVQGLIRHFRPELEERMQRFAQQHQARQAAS
UniProt O00221: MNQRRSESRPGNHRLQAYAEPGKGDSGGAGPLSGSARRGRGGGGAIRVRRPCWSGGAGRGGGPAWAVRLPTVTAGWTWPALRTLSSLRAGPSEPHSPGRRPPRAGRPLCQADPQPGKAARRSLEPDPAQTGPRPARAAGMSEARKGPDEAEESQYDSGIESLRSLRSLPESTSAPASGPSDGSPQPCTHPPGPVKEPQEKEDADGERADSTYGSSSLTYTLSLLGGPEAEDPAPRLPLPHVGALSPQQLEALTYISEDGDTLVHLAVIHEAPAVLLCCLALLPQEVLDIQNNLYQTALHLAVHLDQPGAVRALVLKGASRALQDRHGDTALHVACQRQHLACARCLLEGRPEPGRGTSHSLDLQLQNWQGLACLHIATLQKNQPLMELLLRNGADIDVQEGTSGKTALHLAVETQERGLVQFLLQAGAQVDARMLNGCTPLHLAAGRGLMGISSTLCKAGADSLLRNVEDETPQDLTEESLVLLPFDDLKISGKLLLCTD
UniProt Q8IXH7, whole entry, looked up: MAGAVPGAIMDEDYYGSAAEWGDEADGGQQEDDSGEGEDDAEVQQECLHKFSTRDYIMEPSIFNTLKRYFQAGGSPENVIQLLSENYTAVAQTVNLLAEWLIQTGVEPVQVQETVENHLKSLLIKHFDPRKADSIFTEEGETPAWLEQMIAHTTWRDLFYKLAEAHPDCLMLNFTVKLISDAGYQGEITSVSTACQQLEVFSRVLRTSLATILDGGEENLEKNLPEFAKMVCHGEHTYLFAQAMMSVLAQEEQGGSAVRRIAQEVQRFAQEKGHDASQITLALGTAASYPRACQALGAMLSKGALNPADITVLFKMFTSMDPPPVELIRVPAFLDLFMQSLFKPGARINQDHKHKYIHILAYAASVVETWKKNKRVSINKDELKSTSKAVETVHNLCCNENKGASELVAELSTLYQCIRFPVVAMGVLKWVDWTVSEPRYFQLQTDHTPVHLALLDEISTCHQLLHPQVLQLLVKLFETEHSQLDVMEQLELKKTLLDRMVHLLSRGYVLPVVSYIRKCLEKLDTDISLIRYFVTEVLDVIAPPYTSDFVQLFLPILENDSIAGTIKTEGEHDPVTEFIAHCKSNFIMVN
UniProt Q7Z628: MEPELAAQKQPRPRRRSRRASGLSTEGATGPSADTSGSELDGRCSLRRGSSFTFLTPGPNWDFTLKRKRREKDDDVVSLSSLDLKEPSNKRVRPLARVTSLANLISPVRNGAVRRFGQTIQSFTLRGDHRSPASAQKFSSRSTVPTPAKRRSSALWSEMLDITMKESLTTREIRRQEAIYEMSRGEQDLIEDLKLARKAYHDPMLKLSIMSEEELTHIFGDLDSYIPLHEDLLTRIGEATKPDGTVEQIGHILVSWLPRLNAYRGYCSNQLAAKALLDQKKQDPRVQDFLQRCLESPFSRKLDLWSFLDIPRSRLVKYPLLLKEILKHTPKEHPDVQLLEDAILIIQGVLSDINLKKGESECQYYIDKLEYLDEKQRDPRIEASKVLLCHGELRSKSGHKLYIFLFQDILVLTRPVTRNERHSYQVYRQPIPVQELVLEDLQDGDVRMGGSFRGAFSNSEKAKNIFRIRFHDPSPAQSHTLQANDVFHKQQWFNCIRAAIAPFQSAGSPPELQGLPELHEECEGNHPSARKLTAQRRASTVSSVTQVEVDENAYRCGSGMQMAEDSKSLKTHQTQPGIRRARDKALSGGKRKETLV
UniProt Q9Y6M9, whole entry: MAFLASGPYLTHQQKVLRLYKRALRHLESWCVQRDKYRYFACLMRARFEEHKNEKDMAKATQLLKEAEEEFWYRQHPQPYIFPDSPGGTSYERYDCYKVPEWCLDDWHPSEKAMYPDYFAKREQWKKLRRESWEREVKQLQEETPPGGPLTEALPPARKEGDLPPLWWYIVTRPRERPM
UniProt Q9NX24: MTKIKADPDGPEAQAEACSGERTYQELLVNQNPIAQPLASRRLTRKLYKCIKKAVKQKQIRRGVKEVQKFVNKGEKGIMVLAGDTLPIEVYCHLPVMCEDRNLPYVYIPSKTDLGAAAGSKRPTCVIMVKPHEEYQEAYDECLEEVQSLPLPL
UniProt P14543: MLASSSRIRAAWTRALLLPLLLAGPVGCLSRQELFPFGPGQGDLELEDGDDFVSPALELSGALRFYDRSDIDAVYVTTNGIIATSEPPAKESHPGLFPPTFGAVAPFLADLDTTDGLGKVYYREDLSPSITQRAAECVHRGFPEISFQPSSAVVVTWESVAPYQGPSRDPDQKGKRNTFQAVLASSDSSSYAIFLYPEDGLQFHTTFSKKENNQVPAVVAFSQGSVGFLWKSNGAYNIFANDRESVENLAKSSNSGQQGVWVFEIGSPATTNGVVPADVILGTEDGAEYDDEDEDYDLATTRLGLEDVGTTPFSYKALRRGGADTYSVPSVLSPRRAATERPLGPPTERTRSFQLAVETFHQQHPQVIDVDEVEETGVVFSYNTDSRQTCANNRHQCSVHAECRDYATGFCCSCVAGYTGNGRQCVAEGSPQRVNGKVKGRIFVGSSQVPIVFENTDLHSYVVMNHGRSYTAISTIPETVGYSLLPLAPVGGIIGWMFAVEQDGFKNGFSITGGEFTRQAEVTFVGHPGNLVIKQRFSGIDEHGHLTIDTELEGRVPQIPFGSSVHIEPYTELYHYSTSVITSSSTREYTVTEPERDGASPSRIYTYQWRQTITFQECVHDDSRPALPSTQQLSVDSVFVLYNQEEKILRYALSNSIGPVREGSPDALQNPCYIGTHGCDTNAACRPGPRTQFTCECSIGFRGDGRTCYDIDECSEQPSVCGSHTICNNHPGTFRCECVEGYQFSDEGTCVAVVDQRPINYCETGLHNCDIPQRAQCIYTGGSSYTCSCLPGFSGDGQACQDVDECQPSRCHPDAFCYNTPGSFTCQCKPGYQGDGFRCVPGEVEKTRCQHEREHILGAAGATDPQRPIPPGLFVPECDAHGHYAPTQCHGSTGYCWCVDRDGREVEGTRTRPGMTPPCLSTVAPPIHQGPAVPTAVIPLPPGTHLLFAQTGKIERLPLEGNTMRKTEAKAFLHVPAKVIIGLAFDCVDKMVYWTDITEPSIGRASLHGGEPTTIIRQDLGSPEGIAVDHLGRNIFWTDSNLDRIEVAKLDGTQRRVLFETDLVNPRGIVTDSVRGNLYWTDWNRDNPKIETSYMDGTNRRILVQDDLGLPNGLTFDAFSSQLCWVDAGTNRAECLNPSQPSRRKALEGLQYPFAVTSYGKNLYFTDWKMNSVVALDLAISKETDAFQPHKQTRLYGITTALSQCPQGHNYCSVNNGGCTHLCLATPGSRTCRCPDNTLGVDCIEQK

Row | Target | probe-labelled cysteine peptide fold change (10 µM) | probe-labelled cysteine peptide fold change (50 µM)
1 | NFIC_P08651_163_AAQCGHPVLCVQPHHIGVAVK (UniProt P08651) | 0.0354 | -0.0269
2 | NDUFA8_P51970_88_HCAEPFTEYWTCIDYTGQQLFR (UniProt P51970) | 0.342 | 0.0824
3 | NEK9_Q8TD19_569_LGLNQCMSGIINHEAYHEVPYTTSFTLAK (UniProt Q8TD19) | 0.015 | -0.126
4 | NEK9_Q8TD19_487_VAGPEVLEPMQLNFFLSNPVEQVSCGDNHVVVLTR (UniProt Q8TD19) | 0.234 | -0.00579
5 | NGLY1_Q96IV0_286_EVEDHYCDACQFSNR (UniProt Q96IV0) | 0.08 | -0.0594
6 | NDUFA10_O95299_183_QCVDHYNEVK (UniProt O95299) | -0.0749 | -0.128
7 | NDOR1_Q9UHB4_486_VAQGQTGNFLFFGCR (UniProt Q9UHB4) | -0.0873 | -0.272
8 | NCL_P19338_543_EALNSCNKR (UniProt P19338) | 0.0585 | -0.113
9 | NCOA5_Q9HCD5_200_FDAERPVDCSVIVVNK (UniProt Q9HCD5) | 0.149 | 0.263
10 | NCOA7_Q8NI08_618_EALDSSLESTLDNSCQGAQMDNK (UniProt Q8NI08) | -0.0625 | -0.0994
11 | NDRG1_Q92597_289_MADCGGLPQISQPAK (UniProt Q92597) | -0.106 | -0.0404
12 | NDRG1_Q92597_49_GETITGLLQEFDVQEQDIETLHGSVHVTLCGTPK (UniProt Q92597) | 0.289 | 0.0766
13 | NCKIPSD_Q9NZQ3_412+429_CYLEELLHILTDADPEVCKK (UniProt Q9NZQ3) | 0.0318 | -0.0786
14 | NFXL1_Q6ZNB6_713_SRPLGCLHPCILR (UniProt Q6ZNB6) | -0.0587 | -0.194
15 | NIFK_Q9BYG3_237_TVDSQGPTPVCTPTFLER (UniProt Q9BYG3) | -0.298 | -0.0996
16 | NCOA5_Q9HCD5_266_SCTVNIMFGTPQEHR (UniProt Q9HCD5) | 0.243 | 0.209
17 | NF1_P21359_904_LLSLMVCNHEK (UniProt P21359) | -0.111 | -0.447
18 | NEMF_O60524_201_RVLNPLLPYGPALIEHCLLENGFSGNVK (UniProt O60524) | 0.106 | 0.103

Row | Target | probe-labelled cysteine peptide fold change (10 µM) | probe-labelled cysteine peptide fold change (50 µM)
19 | NFX1_Q12986_951_LECDEECSALER (UniProt Q12986) | 0.0772 | -0.146
20 | NIPSNAP2_O75323_93_ICQEVLPK (UniProt O75323) | -0.223 | -0.156
21 | NF2_P35240_133_IYCPPEASVLLASYAVQAK (UniProt P35240) | -0.114 | 0.232
22 | NEK9_Q8TD19_506_EVYSWGCGEYGR (UniProt Q8TD19) | -0.0353 | -0.0285
23 | NDRG3_Q9UGV2_359_SVTSNQSDGTQESCESPDVLDR (UniProt Q9UGV2) | -0.0455 | -0.0875
24 | NDUFV1_P49821_125_YLVVNADEGEPGTCK (UniProt P49821) | -0.253 | -0.07
25 | NFKBIE_O00221_335_HGDTALHVACQR (UniProt O00221) | 0.0998 | -0.158
26 | NELFCD_Q8IXH7_582_TEGEHDPVTEFIAHCK (UniProt Q8IXH7) | 0.0343 | -0.208
27 | NET1_Q7Z628_267_GYCSNQLAAK (UniProt Q7Z628) | 0.0796 | -0.253
28 | NDUFB9_Q9Y6M9_103_VPEWCLDDWHPSEK (UniProt Q9Y6M9) | 0.169 | 0.101
29 | NHP2_Q9NX24_18_ADPDGPEAQAEACSGER (UniProt Q9NX24) | -0.335 | -0.124
30 | NID1_P14543_403_HQCSVHAECR (UniProt P14543) | -0.182 | -0.302
31 | NEK7_Q8TDX7_53_AACLLDGVPVALKK (UniProt Q8TDX7) | -0.0653 | -0.266
32 | NECTIN2_Q92692_283_TDATLSCDVR (UniProt Q92692) | -0.168 | -0.223
33 | NIPBL_Q6KC79_1066_ELPPELLAEIESTMPLCER (UniProt Q6KC79) | 0.643 | 0.275
34 | NIT1_Q86X76_203_IGLAVCYDMR (UniProt Q86X76) | -0.0753 | -0.95
35 | NFKBIE_O00221_342_QHLACAR (UniProt O00221) | 0.164 | -0.193
36 | NEDD1_Q8NHV4_607_FIQNMIQETLDDFREACHR (UniProt Q8NHV4) | 0.374 | 0.223

From entry 20 up to 30, as listed above:
Row | Target | probe-labelled cysteine peptide fold change (10 µM) | probe-labelled cysteine peptide fold change (50 µM)
20 | NIPSNAP2_O75323_93_ICQEVLPK (UniProt O75323) | -0.223 | -0.156
21 | NF2_P35240_133_IYCPPEASVLLASYAVQAK (UniProt P35240) | -0.114 | 0.232
22 | NEK9_Q8TD19_506_EVYSWGCGEYGR (UniProt Q8TD19) | -0.0353 | -0.0285
23 | NDRG3_Q9UGV2_359_SVTSNQSDGTQESCESPDVLDR (UniProt Q9UGV2) | -0.0455 | -0.0875
24 | NDUFV1_P49821_125_YLVVNADEGEPGTCK (UniProt P49821) | -0.253 | -0.07
25 | NFKBIE_O00221_335_HGDTALHVACQR (UniProt O00221) | 0.0998 | -0.158
26 | NELFCD_Q8IXH7_582_TEGEHDPVTEFIAHCK (UniProt Q8IXH7) | 0.0343 | -0.208
27 | NET1_Q7Z628_267_GYCSNQLAAK (UniProt Q7Z628) | 0.0796 | -0.253
28 | NDUFB9_Q9Y6M9_103_VPEWCLDDWHPSEK (UniProt Q9Y6M9) | 0.169 | 0.101
29 | NHP2_Q9NX24_18_ADPDGPEAQAEACSGER (UniProt Q9NX24) | -0.335 | -0.124
30 | NID1_P14543_403_HQCSVHAECR (UniProt P14543) | -0.182 | -0.302

— the supplement of paper PMC12067093, “Discovery and optimisation of a covalent ligand for TRIM25 and its application to targeted protein ubiquitination” (Chemical Science, 2025)
